Source: PubChem BioAssay AID206 (DTP/NCI, 2004)
The list does not hold the whole screen: it gathers tests that were run many times, whatever their T/C, doses with no T/C, and many T/C values between a quarter and a half above the control. Further doses and runs are listed elsewhere. T/C gives the treated animals as a percentage of the vehicle group. Schedules are NCI's codes, taken here to give the interval after Q, in days (D) or hours (H), and the number of doses after X. Some molecules as drawn cover several salts, stereoisomers or complexes of the source; a dose is that of the sample tested. Some T/C values are followed by the survivors on the day toxicity was checked, most often the fifth; where none is given, no animal had died by that day. Some doses have a count of surviving animals in place of a T/C: the source holds a T/C of zero for them, seemingly a mark for toxic or unscored doses. Counts of survivors are from the toxicity check (mostly the fifth day) where no day follows; animals may have died later. Some doses were run more than once; their values stand side by side, smallest first.

System: nude mice, HT29 intrarenal xenograft, tumor weight T/C
Test: NCI In Vivo Anticancer Drug Screen. Data for tumor model HT29;CX-1 Human Adenocarcinoma (MER+) (intrarenal inoculation) in NU/NU Swiss (nude) mice
Conditions: T/C endpoint: mean tumor weight change, higher T/C = larger tumour
Method in brief: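 Endpoint measured as tumor size or survival; ratio reported is treated group over vehicle controls.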

[1] = dose: 600.0 mg/kg/injection, schedule: Q04DX004 (sc), vehicle: saline with Tween-80
[2] = dose: 200.0 mg/kg/injection, schedule: Q01DX010 (sc), vehicle: saline
[3] = dose: 600.0 mg/kg/injection, schedule: Q04DX004 (sc), vehicle: water
[4] = dose: 600.0 mg/kg/injection, schedule: Q04DX004 (sc), vehicle: Klucel (hydroxypropylcellulose) (HPC)

With `O=C(O)C1CC1.[Ag]` the T/C (dose: 300.0 mg/kg/injection, schedule: Q04DX004 (sc), vehicle: saline with Tween-80, evaluated on day 15) was 134 % of control and the survivor count [1] was 0 of 5 on day 15.
`COC1N(C2CC(O)C(CO)O2)C(=O)NC(=O)C1(F)Br` (stereo unspecified) was tested, and the survivor count (dose: 50.0 mg/kg/injection, schedule: Q01DX010 (sc), vehicle: saline) was 0 of 3 on day 11, the survivor count (dose: 100.0 mg/kg/injection, schedule: Q01DX010 (sc), vehicle: saline) was 0 of 3 on day 11 and the survivor count [2] was 0 of 3 on day 11.
`COc1ccc(OC)c(Cc2cnc3nc(N)nc(N)c3c2C)c1` was tested, and the survivor count [3] was 2 of 6 on day 15 and the survivor count (dose: 1200.0 mg/kg/injection, schedule: Q04DX004 (sc), vehicle: water) was 0 of 6 on day 15.
In the case of `CC(=O)N(C)c1ccc(Nc2cc(C)[nH]c3ccc4ncnc4c23)cc1`, the survivor count (dose: 400.0 mg/kg/injection, schedule: Q04DX004 (sc), vehicle: saline with Tween-80) is reported as 1 of 6 on day 15.
`COC(=O)Nc1cccc(-c2nc3ccc(NC(=O)OC)cc3c(=O)n2-c2ccccc2)c1` was tested, and the survivor count (dose: 100.0 mg/kg/injection, schedule: Q01DX010 (sc), vehicle: Klucel (hydroxypropylcellulose) (HPC)) was 1 of 2 on day 11, the survivor count (dose: 200.0 mg/kg/injection, schedule: Q01DX010 (sc), vehicle: Klucel (hydroxypropylcellulose) (HPC)) was 1 of 3 on day 11 and the survivor count (dose: 400.0 mg/kg/injection, schedule: Q01DX010 (sc), vehicle: Klucel (hydroxypropylcellulose) (HPC)) was 1 of 3 on day 11.
With `O=Cc1c(O)c2ccccc2[nH]c1=O` the survivor count (dose: 2400.0 mg/kg/injection, schedule: Q04DX004 (sc), vehicle: saline with Tween-80) was 0 of 6 on day 15.
In the case of `COC12C(COC(N)=O)C3=C(C(=O)C(C)=C(N)C3=O)N1CC1C2N1C` (stereo unspecified), the survivor count (dose: 16.0 mg/kg/injection, schedule: Q01DX010 (sc), vehicle: saline) is reported as 0 of 3 on day 11 and 1 of 3 on day 11 and the survivor count (dose: 32.0 mg/kg/injection, schedule: Q01DX010 (sc), vehicle: saline) is reported as 0 of 3 on day 11.
`C=Cc1cnc([N+](=O)[O-])n1C` was tested, and the survivor count [4] was 1 of 6 on day 15 and the survivor count (dose: 1200.0 mg/kg/injection, schedule: Q04DX004 (sc), vehicle: Klucel (hydroxypropylcellulose) (HPC)) was 0 of 6 on day 15.
`Cc1cc(NCCCN(C)C)c2ccc3c(ccc4c(NCCCN(C)C)cc(C)nc43)c2n1` was tested, and the survivor count (dose: 18.75 mg/kg/injection, schedule: Q04DX004 (sc), vehicle: saline with Tween-80) was 3 of 6 on day 15, the survivor count (dose: 37.5 mg/kg/injection, schedule: Q04DX004 (sc), vehicle: saline with Tween-80) was 0 of 6 on day 15 and the survivor count (dose: 75.0 mg/kg/injection, schedule: Q04DX004 (sc), vehicle: saline with Tween-80) was 0 of 6 on day 15. The survivor count (dose: 150.0 mg/kg/injection, schedule: Q04DX004 (sc), vehicle: saline with Tween-80) was 0 of 6 on day 15, the survivor count (dose: 300.0 mg/kg/injection, schedule: Q04DX004 (sc), vehicle: saline with Tween-80) was 0 of 6 on day 15 and the survivor count [1] was 0 of 6 on day 15.
For `NCC1CCC(C(=O)O)CC1` (stereo unspecified), the T/C (dose: 200.0 mg/kg/injection, schedule: Q04DX004 (sc), vehicle: saline with Tween-80, evaluated on day 15) was 148 % of control.
With `CN(CO)c1nc(N(C)CO)nc(N(C)CO)n1` the survivor count (dose: 25.0 mg/kg/injection, schedule: Q01DX008 (ip), vehicle: saline) was 0 of 5, the survivor count (dose: 50.0 mg/kg/injection, schedule: Q01DX008 (ip), vehicle: saline) was 0 of 5 and the survivor count (dose: 100.0 mg/kg/injection, schedule: Q01DX008 (ip), vehicle: saline) was 0 of 5. For the same compound, the survivor count (dose: 200.0 mg/kg/injection, schedule: Q01DX008 (ip), vehicle: saline) was 0 of 5, the survivor count [2] was 0 of 3 on day 11 and 0 of 6 on day 11 and the survivor count (dose: 200.0 mg/kg/injection, schedule: Q01DX010 (sc), vehicle: suspension in saline) was 0 of 6 on day 11 and 3 of 6 on day 11. The survivor count (dose: 400.0 mg/kg/injection, schedule: Q01DX010 (sc), vehicle: suspension in saline) was 0 of 6 on day 11.
`COc1cc(C(=O)c2cc3c(cc2C)OCO3)cc(OC)c1OC` was tested, and the T/C (dose: 150.0 mg/kg/injection, schedule: Q04DX004 (sc), vehicle: Klucel (hydroxypropylcellulose) (HPC), evaluated on day 15) was 131 % of control.
With `CCc1ccccc1N1CCN(C(=O)c2cc(OC)c(OC)c(OC)c2)CC1` the survivor count (dose: 2400.0 mg/kg/injection, schedule: Q04DX004 (sc), vehicle: Klucel (hydroxypropylcellulose) (HPC)) was 3 of 6 on day 15.
With `COc1cc(NCc2ccc3nc(N)nc(N)c3c2C)cc(OC)c1OC` the T/C (dose: 4.7 mg/kg/injection, schedule: Q04DX004 (sc), vehicle: water, evaluated on day 15) was 130 % of control, the survivor count (dose: 10.0 mg/kg/injection, schedule: Q01DX010 (sc), vehicle: sodium bicarbonate) was 0 of 2 on day 11 and 0 of 3 on day 11 and the survivor count (dose: 75.0 mg/kg/injection, schedule: Q04DX004 (sc), vehicle: water) was 3 of 6 on day 15. The survivor count (dose: 150.0 mg/kg/injection, schedule: Q04DX004 (sc), vehicle: water) was 0 of 6 on day 15, the survivor count (dose: 300.0 mg/kg/injection, schedule: Q04DX004 (sc), vehicle: water) was 0 of 6 on day 15 and the survivor count [3] was 0 of 6 on day 15.
`O=C1c2cccc3cc([N+](=O)[O-])cc(c23)C(=O)N1CCN1CCCC1` was tested, and the survivor count (dose: 72.0 mg/kg/injection, schedule: Q04DX004 (sc), vehicle: saline with Tween-80) was 3 of 6 on day 15 and the survivor count (dose: 144.0 mg/kg/injection, schedule: Q04DX004 (sc), vehicle: saline with Tween-80) was 0 of 6 on day 15.
With `O=c1s[se]c2ccccc12` the T/C (dose: 75.0 mg/kg/injection, schedule: Q04DX004 (sc), vehicle: Klucel (hydroxypropylcellulose) (HPC), evaluated on day 15) was 133 % of control [4 of 6 alive on day 15], the survivor count (dose: 150.0 mg/kg/injection, schedule: Q04DX004 (sc), vehicle: Klucel (hydroxypropylcellulose) (HPC)) was 3 of 6 on day 15 and the survivor count (dose: 300.0 mg/kg/injection, schedule: Q04DX004 (sc), vehicle: Klucel (hydroxypropylcellulose) (HPC)) was 2 of 6 on day 15 and 3 of 5 on day 15. For the same compound, the survivor count [4] was 0 of 6 on day 15.
`COC(=O)C[C@](O)(CCCC(C)(C)O)C(=O)O[C@@H]1C(OC)=C[C@]23CCCN2CCc2cc4c(cc2[C@H]13)OCO4` was tested, and the survivor count (dose: 2.0 mg/kg/injection, schedule: Q01DX010 (sc), vehicle: saline) was 0 of 3 on day 11 and the survivor count (dose: 4.0 mg/kg/injection, schedule: Q01DX010 (sc), vehicle: saline) was 0 of 3 on day 11.
`COC1/C=C\C=C(/C)C(=O)NC2=CC(=O)C=C(C2=O)C(OC)C(C)CC(OC)C(OC)C(C)/C=C(/C)C1OC(N)=O` (stereo unspecified) was tested, and the survivor count (dose: 4.5 mg/kg/injection, schedule: Q04DX004 (sc), vehicle: Klucel (hydroxypropylcellulose) (HPC)) was 2 of 6 on day 15 and 3 of 6 on day 15, the survivor count (dose: 9.0 mg/kg/injection, schedule: Q04DX004 (sc), vehicle: Klucel (hydroxypropylcellulose) (HPC)) was 0 of 6 on day 15 and 1 of 6 on day 15 and the survivor count (dose: 18.0 mg/kg/injection, schedule: Q04DX004 (sc), vehicle: Klucel (hydroxypropylcellulose) (HPC)) was 0 of 6 on day 15. For the same compound, the survivor count (dose: 36.0 mg/kg/injection, schedule: Q04DX004 (sc), vehicle: Klucel (hydroxypropylcellulose) (HPC)) was 0 of 6 on day 15.
With `CCC1(O)CC2CN(CCc3c([nH]c4ccccc34)C(C(=O)OC)(c3cc4c(cc3OC)N(C)C3C(O)(C(=O)NCCSSCCNC(=O)C5(O)C(O)C6(CC)C=CCN7CCC8(c9cc(C%10(C(=O)OC)CC%11CN(CCc%12c%10[nH]c%10ccccc%12%10)CC(O)(CC)C%11)c(OC)cc9N(C)C58)C76)C(O)C5(CC)C=CCN6CCC43C65)C2)C1` (stereo unspecified) the survivor count (dose: 3.0 mg/kg/injection, schedule: Q04DX004 (sc), vehicle: saline) was 2 of 6 on day 15, the survivor count (dose: 6.0 mg/kg/injection, schedule: Q04DX004 (sc), vehicle: saline) was 0 of 6 on day 15 and 1 of 6 on day 15 and the survivor count (dose: 12.0 mg/kg/injection, schedule: Q04DX004 (sc), vehicle: saline) was 0 of 6 on day 15.
With `CN1C(=O)NC(c2ccc(Cl)cc2)(c2ccc(Cl)cc2)C1=O` the T/C (dose: 200.0 mg/kg/injection, schedule: Q01DX010 (sc), vehicle: saline with Tween-80, evaluated on day 20) was 125 % of control.
In the case of `CCCCCCCCCCCCSC1=C(Cl)C(=O)C(OC)=C(OC)C1=O`, the survivor count [1] is reported as 3 of 6 on day 15.
`OCC1(CO)COC2(CCCCC2)N1` was tested, and the T/C (dose: 300.0 mg/kg/injection, schedule: Q04DX004 (sc), vehicle: suspension in saline, evaluated on day 15) was 131 % of control.
